Results of single-concentration screens

The filed quantity is “Percent Effect” (%).
The controls that fix the scale are not given in the record; negative values are as filed.
This is an unselected part of the compounds tested.
Two or more numbers in one place are separate tests of the same structure; such repeats can differ widely.

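Cell assay of Leishmania donovani living inside macrophages; the read-out is not stated. Concentration: 30 µM. The record gives no direction; compounds that gave an IC50 in retests scored well above the rest, so higher reads as stronger inhibition. Size under these conditions: about 69,000 compounds, about 1,000 of them at 50% or above in at least one test.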

CC(=O)c1cc(C(=O)N2CCC3(CC2)Nc2ccccc2NC3=O)cs1 gave 1.77%. Result for COc1ccc(Oc2cncc(C3CCCN3C(C)=O)n2)cc1 (centres undefined) was -16.4%. Result for Cn1cnnc1SCC(=O)NC1CC(=O)N(CCc2ccccc2)C1 (centres undefined) was 4.582%. CC(CC(=O)NCCCn1cccn1)c1cccnc1 (centres undefined) read 10.38%.

Cc1ccc(NC2(C(=O)N3CCn4cncc4C3)CCCCC2)cc1C read -6.487%. C=C(C)CN1CCC(NC(=O)NCCc2cccc(C(N)=O)c2)CC1 read 23.41%. For CCN(CCC(=O)OC)C(=O)c1cccc(Cn2nc(C)cc2C)c1 the result was 22.35%. Result for Cc1ccc(C(=O)Nc2ccc3c(c2)N(C)CCN(C)C3)c(=O)[nH]1 was 4.534%.

Cc1nn(-c2ccccc2)c(C)c1CNC(=O)NC1CC(=O)N(C)C1 (centres undefined) read 8.188%. Result for Cc1nc(C)c(C(=O)Nc2ccc(-c3nnc(N(C)C)o3)cc2)o1 was 4.492%. With CC(C)n1cc(N2CC(C(=O)N3CCc4ccccc4C3)CC2=O)cn1 (centres undefined) the screen gave 14.72%. With Cc1cc(F)c2c(c1)CCCN2Cc1cc(=O)n(C)c(=O)n1C the screen gave 8.477%.

With CCCN1CCC(CC(=O)NCCc2nc(C)cc(C)n2)CC1 the screen gave 11.71%. With COC(=O)CNC(=O)c1c(-n2cnnn2)sc2c1CCCC2 the screen gave 28.68%. Result for Cc1cc(=O)[nH]cc1C(=O)N1CCN(C)c2ccccc2C1 was 57.95%. Result for CN1CC(=O)N(c2cccc(F)c2)CC12CCN(Cc1ccsc1)C2.O=C(O)C(F)(F)F.O=C(O)C(F)(F)F (centres undefined) was 16.95% and 3.771%.

With O=C(Nc1ncnc2c1CCC2)c1ccc2c(c1)OCO2 the screen gave 11.12%. For Cc1occc1C(=O)N1CCc2c(CNc3ncccn3)cncc2C1.Cl the result was -27.97%. Result for COc1ncc(CN2CCC3(CCNC(=O)CC3)CC2)cn1 was 26.79%. For Cc1nc(N)sc1C(=O)N1CCC(C(O)Cc2ccccc2)CC1 (centres undefined) the result was 8.209%.

Result for [H][C@]12C[C@@H](Cn3cncn3)N(C(C)=O)[C@@]1([H])CCN(C(=O)c1ccoc1)C2 was 35.27%. CCOc1ccccc1OCCN(C)Cc1ncnn1CC gave -0.4793%. Result for CC(=O)NCC(=O)N1Cc2cnc(CC(C)C)nc2C1 was -12.34%. CN(CC(N)=O)S(=O)(=O)c1ccc(F)cc1F read 27.88%.

For COc1ccccc1Oc1ncccc1CNC(=O)C1(C)CCCNC1 (centres undefined) the result was 11.32%. For CCN1CC(C(=O)NC(C)(C)C(=O)OC)CC1=O (centres undefined) the result was -12.66%. With O=C(O)C(F)(F)F.[H][C@@]12CN(CC3CCOC3)C[C@@]1([H])N(Cc1cccc(F)c1)C(=O)CO2 (some centres undefined) the screen gave 3.156%. Result for CCn1ccnc1CN1CCN(Cc2cc(C#N)ccc2F)CC1 was 39.61%.

COC(=O)c1ccoc1CN(C)CC(=O)N(C)C read 1.625%.

2 of the entries, repeated:

{"structure": "COc1ncc(CN2CCC3(CCNC(=O)CC3)CC2)cn1", "effect": 26.79}
{"structure": "CN(CC(N)=O)S(=O)(=O)c1ccc(F)cc1F", "effect": 27.88}

From ChEMBL document CHEMBL3988442, “University of Dundee, Small-Polar-MMV Screening Library” (2021).